Reference: publication PMC3095777, “Structure and Activity of a Novel Archaeal β-CASP Protein with N-Terminal KH Domains” (Structure(London, England:1993), 2011)
No constants are given. Whether binding was seen depends on the method and setting. Some binding calls cover weakened binding; strength is not graded here.

T1: MTH1203 (Methanothermobacter thermautotrophicus …, UniProt O27271 1-636)
T1 sequence: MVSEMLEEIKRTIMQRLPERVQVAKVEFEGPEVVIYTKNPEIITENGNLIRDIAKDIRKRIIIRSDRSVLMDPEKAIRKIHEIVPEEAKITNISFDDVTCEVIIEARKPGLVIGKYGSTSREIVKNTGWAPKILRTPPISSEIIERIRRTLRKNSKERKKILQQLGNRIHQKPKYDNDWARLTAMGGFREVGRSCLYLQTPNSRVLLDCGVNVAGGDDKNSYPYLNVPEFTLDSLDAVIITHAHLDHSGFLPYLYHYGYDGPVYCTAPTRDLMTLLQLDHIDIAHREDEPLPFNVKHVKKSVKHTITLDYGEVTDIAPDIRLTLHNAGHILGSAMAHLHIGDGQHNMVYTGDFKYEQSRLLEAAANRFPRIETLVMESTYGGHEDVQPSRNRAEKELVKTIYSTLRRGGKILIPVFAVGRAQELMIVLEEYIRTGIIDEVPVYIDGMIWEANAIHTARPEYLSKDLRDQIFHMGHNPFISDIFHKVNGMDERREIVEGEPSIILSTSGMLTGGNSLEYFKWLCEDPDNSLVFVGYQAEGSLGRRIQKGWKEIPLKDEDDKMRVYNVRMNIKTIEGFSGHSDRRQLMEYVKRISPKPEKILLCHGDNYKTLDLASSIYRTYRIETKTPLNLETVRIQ


Key:
MTH1203 [1] = molecular target: T1, MTH1203; assay: crystal structure; space group P4(1)2(1)2, 3.1 Å, two molecules in the asymmetric unit; His-tag removed; dimer assembly analysed with PISA; both purified
MTH1203 [2] = molecular target: T1, MTH1203; assay: SEC-MALS; MTH1203 mixed with the exosome core (Figure S7); both purified

binding (MTH1203 [1]) | binding (MTH1203 [2]) | Binder
binds |  | MTH1203 (enzyme, Methanothermobacter thermautotrophicus, UniProt O27271 1-636, looked up, MTH1203 from Methanothermobacter thermautotrophicus strain delta H; mth1203 gene amplified from genomic DNA, cloned into pETYSBLIC-3C; predicted molecular mass 73.1 kDa; residues up to 636 named; Dimer at 0.5-0.7 M NaCl or KCl, monomer at 1 M NaCl; full cloning and purification details are in the Supplemental Experimental Procedures; also called β-CASP metallo-β-lactamase family nuclease; source: …) MVSEMLEEIKRTIMQRLPERVQVAKVEFEGPEVVIYTKNPEIITENGNLIRDIAKDIRKRIIIRSDRSVLMDPEKAIRKIHEIVPEEAKITNISFDDVTCEVIIEARKPGLVIGKYGSTSREIVKNTGWAPKILRTPPISSEIIERIRRTLRKNSKERKKILQQLGNRIHQKPKYDNDWARLTAMGGFREVGRSCLYLQTPNSRVLLDCGVNVAGGDDKNSYPYLNVPEFTLDSLDAVIITHAHLDHSGFLPYLYHYGYDGPVYCTAPTRDLMTLLQLDHIDIAHREDEPLPFNVKHVKKSVKHTITLDYGEVTDIAPDIRLTLHNAGHILGSAMAHLHIGDGQHNMVYTGDFKYEQSRLLEAAANRFPRIETLVMESTYGGHEDVQPSRNRAEKELVKTIYSTLRRGGKILIPVFAVGRAQELMIVLEEYIRTGIIDEVPVYIDGMIWEANAIHTARPEYLSKDLRDQIFHMGHNPFISDIFHKVNGMDERREIVEGEPSIILSTSGMLTGGNSLEYFKWLCEDPDNSLVFVGYQAEGSLGRRIQKGWKEIPLKDEDDKMRVYNVRMNIKTIEGFSGHSDRRQLMEYVKRISPKPEKILLCHGDNYKTLDLASSIYRTYRIETKTPLNLETVRIQ
 | no binding | exosome core, formed by the MTH682 and MTH683 proteins (complex, UniProt O26778 1-271; O26779 1-240) chain 1: MVNKMDIIPEITRKSITDLINNKERIDGRSLHEFRDISIETGVISKAEGSSRVKLGNTQIIVGVKPQIGEPFPDTPEMGVILTNSELLPMASPTFEPGPPDERSVELSRVVDRCIRESRMIDLEKLCIIEGSKVWMLFLDLHIIDYDGNLFDAAVLATVAALLDTRIPAAEVEDGEVVINREKMQPLPVNRKALMCTFAKIGNEIVLDPSLEEEDILTARISIGVTEEGSICAMQKGGEGPLTRDDVLKAVSIAVEKVPQLIEYLDKSMTP chain 2: MITIITQDQLKTSPSVREDGRAFDELRPLKIEAGILERADGSSYLEFGGNKILVAVYGPREAQIRKLQRPDRAVIRCRYNMAPFSVEERKRPGPDRRSVEISKITAEALRPALILEKFPRSVIDVFIEVLEAEGGTRCAGITAASVALADAGIPMRDMVVACAAGKVGDQVVLDLSEEEDKEGQADVPVAILPRTREITLLQSDGNLTPEEFERALDLAVEGCLRIHEVQKEALRKRYGE
